In patent US6921641:
Results are given in words; binding and its absence hold for the method and conditions named. Some entries that bind do so weakly or less than the wild type.

Columns and labels:
[1] = target: Bacillus caldotenax (Bca) UvrA protein (Bacillus caldotenax); assay: gel mobility shift; slower band taken as the UvrA2 Δβh UvrB-DNA complex; competition with wt UvrB on F26-50 dsDNA, 55° C.
[2] = target: Bacillus caldotenax (Bca) UvrA protein (Bacillus caldotenax); assay: ATPase activity of UvrA + Δβh UvrB, with the gel mobility shift results

binding [1]: binds | binding [2]: binds
B1: β-hairpin deletion mutant of the B. caldotenax UvrB protein (Δβh UvrB) (protein)
chain: VEGRFQLVAPYEPQGDQPQAIAKLVDGLRRGVKHQTLLGATGTGKTFTISNVIAQVNKPTLVIAHNKTLAGQLYSELKEFFPHNAVEYFVSYYDYYGAKINDEIDKLRHSATSALFERRDVIIVASVSCIYGLGSPEEYRELVVSLRVGMEIERNALLRRLVDIQYDRNDIDFRRGTFRVRGDVVEIFPASRDEHCIRVEFFGDEIERIREVDALTGEVLGEREHVAIFPASHFVTREEKMRLAIQNIEQELEERLAELRAQGKLLEAQRLEQRTRYDLEMMREMGFCSGIENYSRHLALRPPGSTPYTLLDYFPDDFLIIVDESHVTLPQLRGMYNGDRARKQVLVDHGFRLPSALDNRPLTFEEFEQKINQIIYVSATPGPYELEHSPGVVEQIIRPTGLLDPTIDVRPTKGQIDDLIGEIRERVERNERTLVTTLTKKMAEDLTDYLKEAGIKVAYLHSEIKTLERIEIIRDLRLGKYDVLVGINLLREGLDIPEVSLVAILDADKEGFLRSERSLIQTIGRAARNANGHVIMYADTITKSMEIAIQETKRRRAIQEEYNRKHGIVPRTVKKEIRDVIRATYAAEETEMYEAKPAAAMTKQEREELIRTLEAEMKEAAKALDFERAAQLRDIIFELKAEG
